Results published in the supplement of paper PMC10849652.
The list shows a part of the results.

By UniProt entry, the sequences of proteins in these tests, tags left out. Where a name states a change or a piece, a line headed by the entry shows the natural chain unless it says otherwise.
UniProt Q9UHQ9: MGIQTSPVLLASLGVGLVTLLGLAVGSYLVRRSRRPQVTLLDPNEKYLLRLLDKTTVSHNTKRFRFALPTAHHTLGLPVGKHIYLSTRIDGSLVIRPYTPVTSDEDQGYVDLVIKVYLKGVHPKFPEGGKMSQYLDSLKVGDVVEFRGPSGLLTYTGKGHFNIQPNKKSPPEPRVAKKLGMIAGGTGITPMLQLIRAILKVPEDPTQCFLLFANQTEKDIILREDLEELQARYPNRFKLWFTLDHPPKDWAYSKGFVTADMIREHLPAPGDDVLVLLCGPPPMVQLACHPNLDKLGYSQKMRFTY
UniProt Q96F07, whole entry, looked up: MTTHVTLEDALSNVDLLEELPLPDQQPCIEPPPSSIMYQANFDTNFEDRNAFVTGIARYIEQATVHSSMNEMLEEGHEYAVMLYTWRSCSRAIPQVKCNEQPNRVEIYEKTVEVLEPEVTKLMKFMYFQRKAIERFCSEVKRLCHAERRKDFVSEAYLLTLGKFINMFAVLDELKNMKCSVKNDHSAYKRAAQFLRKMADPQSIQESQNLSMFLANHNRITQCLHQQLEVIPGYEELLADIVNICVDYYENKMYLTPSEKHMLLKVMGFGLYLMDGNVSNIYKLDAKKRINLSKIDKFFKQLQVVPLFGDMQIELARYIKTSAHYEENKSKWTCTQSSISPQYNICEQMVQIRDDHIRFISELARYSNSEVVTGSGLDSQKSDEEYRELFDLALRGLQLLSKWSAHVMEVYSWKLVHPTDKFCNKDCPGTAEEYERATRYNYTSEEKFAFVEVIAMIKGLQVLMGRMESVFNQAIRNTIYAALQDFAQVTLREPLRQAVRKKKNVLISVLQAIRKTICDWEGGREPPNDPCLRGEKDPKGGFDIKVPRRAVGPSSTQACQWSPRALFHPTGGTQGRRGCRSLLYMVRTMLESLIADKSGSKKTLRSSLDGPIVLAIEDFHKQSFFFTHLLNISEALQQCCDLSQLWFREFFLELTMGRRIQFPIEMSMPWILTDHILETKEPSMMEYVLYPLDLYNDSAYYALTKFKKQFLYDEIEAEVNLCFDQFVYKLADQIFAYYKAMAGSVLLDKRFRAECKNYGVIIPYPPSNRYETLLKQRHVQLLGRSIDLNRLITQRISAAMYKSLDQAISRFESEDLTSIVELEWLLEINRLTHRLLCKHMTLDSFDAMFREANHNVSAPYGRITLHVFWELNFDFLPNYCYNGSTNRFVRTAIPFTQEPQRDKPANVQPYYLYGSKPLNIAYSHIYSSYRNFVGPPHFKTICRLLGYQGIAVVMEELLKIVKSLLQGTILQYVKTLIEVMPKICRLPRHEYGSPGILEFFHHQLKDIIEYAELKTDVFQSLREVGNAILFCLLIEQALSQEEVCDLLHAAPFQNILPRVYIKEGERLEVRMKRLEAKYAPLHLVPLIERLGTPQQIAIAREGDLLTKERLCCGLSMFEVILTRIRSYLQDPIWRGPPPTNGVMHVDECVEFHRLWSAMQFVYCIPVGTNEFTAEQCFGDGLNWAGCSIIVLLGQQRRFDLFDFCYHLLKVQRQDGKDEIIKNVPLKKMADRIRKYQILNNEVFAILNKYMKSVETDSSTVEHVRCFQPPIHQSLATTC
UniProt Q9H467: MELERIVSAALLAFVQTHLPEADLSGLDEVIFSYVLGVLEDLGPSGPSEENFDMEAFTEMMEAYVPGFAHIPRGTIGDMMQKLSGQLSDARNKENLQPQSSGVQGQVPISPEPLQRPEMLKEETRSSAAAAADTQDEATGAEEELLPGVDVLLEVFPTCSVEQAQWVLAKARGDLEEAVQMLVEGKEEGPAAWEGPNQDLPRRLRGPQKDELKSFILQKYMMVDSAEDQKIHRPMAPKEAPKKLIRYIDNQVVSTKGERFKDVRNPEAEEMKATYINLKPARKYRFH
UniProt Q1MSJ5: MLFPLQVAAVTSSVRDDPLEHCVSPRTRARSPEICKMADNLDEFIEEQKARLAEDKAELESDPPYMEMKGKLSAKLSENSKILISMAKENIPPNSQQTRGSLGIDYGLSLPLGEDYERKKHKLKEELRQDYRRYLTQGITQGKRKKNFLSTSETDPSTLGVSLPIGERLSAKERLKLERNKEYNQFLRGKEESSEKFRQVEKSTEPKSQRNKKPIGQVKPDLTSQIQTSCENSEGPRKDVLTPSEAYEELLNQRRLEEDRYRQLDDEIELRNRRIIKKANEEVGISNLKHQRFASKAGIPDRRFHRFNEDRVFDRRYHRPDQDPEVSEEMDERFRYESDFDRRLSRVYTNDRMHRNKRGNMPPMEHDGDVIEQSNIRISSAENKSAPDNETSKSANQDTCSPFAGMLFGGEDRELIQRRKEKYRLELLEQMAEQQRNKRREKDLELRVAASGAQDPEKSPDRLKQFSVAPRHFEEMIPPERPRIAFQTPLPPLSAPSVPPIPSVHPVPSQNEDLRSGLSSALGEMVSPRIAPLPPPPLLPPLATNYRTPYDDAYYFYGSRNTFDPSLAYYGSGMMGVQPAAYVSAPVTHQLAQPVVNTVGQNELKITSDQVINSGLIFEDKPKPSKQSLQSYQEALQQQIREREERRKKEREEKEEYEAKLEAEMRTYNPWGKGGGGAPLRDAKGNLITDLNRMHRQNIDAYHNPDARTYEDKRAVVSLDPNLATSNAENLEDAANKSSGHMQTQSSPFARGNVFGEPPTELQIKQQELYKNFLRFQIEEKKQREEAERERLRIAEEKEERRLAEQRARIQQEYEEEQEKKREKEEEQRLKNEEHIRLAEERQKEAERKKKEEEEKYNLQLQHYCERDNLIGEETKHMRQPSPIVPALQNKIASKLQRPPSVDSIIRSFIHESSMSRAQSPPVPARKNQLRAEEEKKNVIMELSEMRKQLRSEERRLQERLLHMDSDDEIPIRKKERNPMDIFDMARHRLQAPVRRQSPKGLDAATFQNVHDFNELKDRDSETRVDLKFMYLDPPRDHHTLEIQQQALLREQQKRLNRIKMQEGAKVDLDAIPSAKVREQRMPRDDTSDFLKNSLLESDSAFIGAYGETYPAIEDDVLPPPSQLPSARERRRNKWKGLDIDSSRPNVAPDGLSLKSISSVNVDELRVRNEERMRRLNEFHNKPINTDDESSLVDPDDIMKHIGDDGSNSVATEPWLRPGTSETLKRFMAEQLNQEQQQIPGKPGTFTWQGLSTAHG
UniProt Q12996: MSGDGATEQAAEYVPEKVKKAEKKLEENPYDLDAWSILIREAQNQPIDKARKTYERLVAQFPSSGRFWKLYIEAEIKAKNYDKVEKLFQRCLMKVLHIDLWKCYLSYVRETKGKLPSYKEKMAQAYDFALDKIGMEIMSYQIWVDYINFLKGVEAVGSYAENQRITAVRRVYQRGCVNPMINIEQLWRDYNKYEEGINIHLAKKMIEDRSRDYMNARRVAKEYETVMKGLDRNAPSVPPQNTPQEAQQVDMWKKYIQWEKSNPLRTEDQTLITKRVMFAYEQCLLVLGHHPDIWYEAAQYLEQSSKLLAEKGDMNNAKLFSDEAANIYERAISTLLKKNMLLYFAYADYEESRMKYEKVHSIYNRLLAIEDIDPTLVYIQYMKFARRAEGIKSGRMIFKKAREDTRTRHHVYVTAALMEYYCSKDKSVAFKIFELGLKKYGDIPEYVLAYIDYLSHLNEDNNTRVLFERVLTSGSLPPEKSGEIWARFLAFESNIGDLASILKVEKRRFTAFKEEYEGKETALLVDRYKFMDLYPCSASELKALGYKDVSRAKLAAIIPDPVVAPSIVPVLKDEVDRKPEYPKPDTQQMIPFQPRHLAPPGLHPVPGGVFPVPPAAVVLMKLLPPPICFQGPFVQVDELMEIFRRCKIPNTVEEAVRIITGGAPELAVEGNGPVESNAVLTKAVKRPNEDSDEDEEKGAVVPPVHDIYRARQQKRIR
UniProt O75935, whole entry, looked up: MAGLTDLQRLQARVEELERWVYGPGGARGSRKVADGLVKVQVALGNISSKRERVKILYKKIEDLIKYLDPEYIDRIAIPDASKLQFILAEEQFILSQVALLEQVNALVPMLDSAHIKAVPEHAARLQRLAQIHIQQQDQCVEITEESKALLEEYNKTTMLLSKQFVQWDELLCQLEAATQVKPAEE
UniProt Q9UK59: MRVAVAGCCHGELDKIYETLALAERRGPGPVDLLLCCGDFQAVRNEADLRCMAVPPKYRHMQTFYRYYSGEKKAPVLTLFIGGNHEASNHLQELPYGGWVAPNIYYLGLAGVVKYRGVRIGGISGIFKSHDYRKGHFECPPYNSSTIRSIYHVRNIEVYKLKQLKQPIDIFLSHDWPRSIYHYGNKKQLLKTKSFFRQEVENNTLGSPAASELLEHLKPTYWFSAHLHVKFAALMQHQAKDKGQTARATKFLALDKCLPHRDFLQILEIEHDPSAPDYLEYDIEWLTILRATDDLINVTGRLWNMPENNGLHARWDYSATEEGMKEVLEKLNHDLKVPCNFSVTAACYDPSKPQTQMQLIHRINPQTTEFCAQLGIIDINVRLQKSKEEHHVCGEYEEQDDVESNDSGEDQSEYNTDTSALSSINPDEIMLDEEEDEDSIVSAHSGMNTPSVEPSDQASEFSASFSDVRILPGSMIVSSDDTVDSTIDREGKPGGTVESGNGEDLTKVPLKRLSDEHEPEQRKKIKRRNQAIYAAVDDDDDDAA
UniProt P08574: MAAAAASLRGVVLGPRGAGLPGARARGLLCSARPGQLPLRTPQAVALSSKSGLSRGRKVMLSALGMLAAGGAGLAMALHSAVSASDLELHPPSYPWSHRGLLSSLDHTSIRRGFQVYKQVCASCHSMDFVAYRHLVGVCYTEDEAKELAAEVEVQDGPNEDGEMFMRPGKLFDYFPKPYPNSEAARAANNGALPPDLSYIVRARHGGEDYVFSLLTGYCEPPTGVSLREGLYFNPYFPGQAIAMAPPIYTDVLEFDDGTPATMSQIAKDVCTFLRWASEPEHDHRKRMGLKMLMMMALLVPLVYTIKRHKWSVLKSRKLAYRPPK
UniProt Q2VPK5: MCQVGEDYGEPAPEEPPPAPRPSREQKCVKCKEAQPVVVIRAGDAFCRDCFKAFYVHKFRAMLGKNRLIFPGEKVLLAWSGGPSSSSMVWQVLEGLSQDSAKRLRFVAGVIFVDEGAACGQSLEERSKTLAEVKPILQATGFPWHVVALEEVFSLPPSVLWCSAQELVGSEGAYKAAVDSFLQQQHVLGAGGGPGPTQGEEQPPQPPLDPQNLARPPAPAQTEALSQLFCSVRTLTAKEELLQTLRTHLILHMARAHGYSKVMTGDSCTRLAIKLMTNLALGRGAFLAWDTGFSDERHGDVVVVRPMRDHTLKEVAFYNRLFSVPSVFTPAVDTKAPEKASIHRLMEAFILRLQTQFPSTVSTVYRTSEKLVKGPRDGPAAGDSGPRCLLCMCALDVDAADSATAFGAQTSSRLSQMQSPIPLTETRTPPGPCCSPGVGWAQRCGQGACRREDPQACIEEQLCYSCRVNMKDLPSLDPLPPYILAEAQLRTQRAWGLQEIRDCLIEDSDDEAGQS
UniProt Q01459: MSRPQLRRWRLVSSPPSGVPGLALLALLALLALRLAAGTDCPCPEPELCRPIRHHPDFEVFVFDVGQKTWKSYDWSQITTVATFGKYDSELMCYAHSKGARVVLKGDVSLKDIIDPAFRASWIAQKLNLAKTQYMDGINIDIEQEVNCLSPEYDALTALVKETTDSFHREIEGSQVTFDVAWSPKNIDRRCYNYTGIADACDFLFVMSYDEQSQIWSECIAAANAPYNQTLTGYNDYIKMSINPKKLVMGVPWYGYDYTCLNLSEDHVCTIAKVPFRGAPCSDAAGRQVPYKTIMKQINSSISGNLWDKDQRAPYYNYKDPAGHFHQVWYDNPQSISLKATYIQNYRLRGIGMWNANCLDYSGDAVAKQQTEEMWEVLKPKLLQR
UniProt Q5QP82: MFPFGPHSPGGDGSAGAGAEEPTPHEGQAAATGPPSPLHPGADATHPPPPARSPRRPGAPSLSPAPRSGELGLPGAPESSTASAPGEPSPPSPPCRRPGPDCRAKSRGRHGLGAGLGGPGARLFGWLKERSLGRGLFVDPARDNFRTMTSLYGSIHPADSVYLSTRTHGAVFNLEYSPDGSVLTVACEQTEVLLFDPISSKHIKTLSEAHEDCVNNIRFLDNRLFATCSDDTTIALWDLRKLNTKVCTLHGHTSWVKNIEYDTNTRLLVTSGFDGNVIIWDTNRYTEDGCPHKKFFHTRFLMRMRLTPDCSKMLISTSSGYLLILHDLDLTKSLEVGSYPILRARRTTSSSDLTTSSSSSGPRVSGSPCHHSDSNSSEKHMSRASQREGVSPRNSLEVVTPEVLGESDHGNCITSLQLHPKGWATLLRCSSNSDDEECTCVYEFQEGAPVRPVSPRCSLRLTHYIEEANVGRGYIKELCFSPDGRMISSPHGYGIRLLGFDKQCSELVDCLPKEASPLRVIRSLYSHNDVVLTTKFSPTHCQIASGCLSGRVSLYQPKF

What follows are targets tested with CN1CCC(CNc2ccc3ncc(-c4cccc(OC(F)(F)F)c4)n3n2)CC1 (assay: log2 fold change, soluble protein after heating vs DMSO (PISA); higher = thermal stabilisation; K562 cells, 10 uM, 30 min; active = over 0.2 and 3.5 SD of the protein, either way, in both replicates (recomputed)).
Method in brief: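 Soluble protein was defined as the supernatant after 21,000xg for 90 min. It came from K562 cells at 2×10^6 cells/mL given 10 μM compound for 30 min, heated in aliquots for 3 min across 48°C-58°C, pooled, and extracted in PBS with 0.5% NP-40 at 4°C, and was quantified by TMTpro 16plex LC-MS/MS with equalised channel sums. Thermal stability against control samples, from duplicates, is reported as log2 fold change.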

Row | Target | log2 fold change
1 | CSTF1 (UniProt Q05048) | inactive: 0.091
2 | CYB5R1 (UniProt Q9UHQ9) | inactive: -0.016
3 | CTBP1 (UniProt Q13363) | inactive: 0.006
4 | CYFIP2 (UniProt Q96F07) | inactive: -0.017
5 | CUEDC2 (UniProt Q9H467) | inactive: -0.067
6 | CXorf56 (UniProt Q9H5V9) | inactive: 0.052
7 | CSPP1 (UniProt Q1MSJ5) | inactive: 0.061
8 | CSTF3 (UniProt Q12996) | inactive: 0.13
9 | CYFIP1 (UniProt Q7L576) | inactive: -0.034
10 | DCTN3 (UniProt O75935) | inactive: -0.008
11 | DBR1 (UniProt Q9UK59) | inactive: 0.015
12 | CYC1 (UniProt P08574) | inactive: 0.012
13 | CTU2 (UniProt Q2VPK5) | inactive: -0.162
14 | CTBS (UniProt Q01459) | active: -0.44
15 | DCAF10 (UniProt Q5QP82) | inactive: 0.022
16 | CTTN (UniProt Q14247) | inactive: 0.001
